US20110052623A1, “DRIED MICROBIAL CELLS OR MICROORGANISM EXTRACT CONTAINING STABILIZED (SS)-S-ADENOSYL-L-METHIONINE AND METHOD FOR PRODUCTION OF THE DRIED MICROORGANISM CELL OR MICROORGANISM EXTRACT” (KANEKA CORPORATION, priority 2007, published 2011)

Test: Stabilizing agent: dried yeast cells containing SAM with added compound preserved at 25° C. for 7 days
Assay type: physicochemical
Conditions: compound added at 30% by weight to dried yeast cells
Procedure: The yeast cells obtained in the Reference Example were suspended in deionized water in one-sixth (⅙) of the amount of the culture solution. Each of the compounds listed in table 3 (30% by weight in terms of dry weight) was separately added to the resultant, followed by freezing at −80° C. and lyophilization. Thus, dried yeast cells containing SAM were obtained.

Cl.NCCC[C@H](N)C(=O)O [L-ornithine hydrochloride]
SAM residual rate: 98.2%
